From publication PMC3499525 (PLoS ONE, 2012) come the findings set out here.

One data set deals with I2 imidazoline receptor. The data set is described as follows: I2 imidazoline receptor binding assay ([3H]idazoxan). The settings on record: [3H]idazoxan 2 nM, rat cerebral cortex.
The test system of a further data set is I1 imidazoline receptor. As to the kind of experiment: I1 imidazoline receptor binding assay ([3H]clonidine). The settings on record: [3H]clonidine 15 nM, bovine adrenal medulla glands.

Take `c1ccc2c(c1)OCC(C1=NCCN1)O2` (centres unmarked) [idazoxan, reference compound]: in the data set with I2 imidazoline receptor, the “nH (Hill coefficient)” value stood at 1.7.

For `C1COC(NC(C2CC2)C2CC2)=N1` [rilmenidine, reference compound], the “nH (Hill coefficient)” value in the data set with I1 imidazoline receptor is 0.9.
